At least one peptide structure holds a part that was inferred or is arguable (an end, a ring closure or a residue). Ends that are not written are not given here.
Legend:
formalin response [1] = assay: Formalin assay in rats after i.v. (tail vein) injection of peptide; format: in vivo; settings: rat, tail vein injection 1 mM, 30 min before formalin
Experimental: FIG. 2—Supression of phase II, but not phase I formalin response in rats injected with R9-QDHWC peptide. The effect of i.v. administration of PBS, R9 (1 mM) or R9-QDHWC (1 mM) on phase I and phase II of the formalin assay. Phase I represents the period from 0-10 min following formalin injection and phase II represents the period from 11-60 min following formalin injection. N=4-7 rats per group. *** indicates a significant difference when compared to PBS injection (p<0.01).
As is shown in FIG. 2, the peptide R9-QDHWC (full sequence RRRRRRRRRQDHWC; SEQ ID NO_also inhibits phage II but not phase I responses in the rat formalin model. Male Sprague Dawley rats (175-225 gm) received a tail vein injection of either PBS, R9 (1 mM), or R9-QDHWC (1 mM) following which they were placed in a plexiglass observation chamber to allow for acclimation. Thirty minutes following the tail vein injection, the dorsal surface of one hind paw was injected with 50 ul of a 5% formalin solution. Observers, blind to drug treatment, scored the number of biting, licking, and scratching behaviors of the injected hindlimb and paw. Data were analyzed with SigmaStat Software (SPSS, Inc. v. 2.03) using ANOVA followed by a Tukey post hoc analysis.

[2] = test system: mature hippocampal neuronal cultures; assay: FM1-43 imaging, double-staining protocol (synaptic function); format: cell-based; settings: neurons incubated with 50 μM peptide for 15 min; 90 mM KCl stimulation
From the text: FIGS. 3A-D—Effects of R9-QDHWC peptides on synaptic function. Double-staining protocol is shown on the top. Results of first and second destaining are shown for representative puncta for control neurons (FIG. 3A), for neurons loaded with R9 peptide (FIG. 3B) and for neurons loaded with R9-QDHWC peptide (FIG. 3C). An average d2/d1 ratios are compared for all 3 groups of neurons (FIG. 3D).
An FM1-43 imaging was used to study synaptic effects of R9-QDHWC competitive peptide that corresponds to Mint-PDZ binding site on Cav2.2 subunit. In these experiments we adapted double-staining protocol from (Reuter, 1995). First the mature hippocampal neuronal cultures were stained with FM1-43 dye for 90 sec in the presence of 47 mM KCl (FIG. 3, top). Following staining and washout of the dye (10 min) the neurons were stimulated by 90 mM KCl and the initial rate of destaining (d1) was measured at each puncta (FIG. 3, top). After completion of the first destaining protocol, the same neuronal culture was re-stained with FM1-43 for 90 sec in the presence of 47 mM KCl. […] The initial rate of destaining (d2) was once again measured at each puncta (FIG. 3, top).
To compare the results obtained during first and second destaining protocols and to minimize puncta-to-puncta variability, the inventors calculated the d2/d1 ratios for each puncta.

formalin response [3] = assay: Formalin assay in mouse, test compound injected into the hindpaw; format: in vivo; settings: injected into dorsum of hindpaw 1 h before formalin, vs saline control
Experimental: FIGS. 1A & 1B—Supression of phase II, but not phase I formalin response in mouse injected with R9-NC peptide. FIG. 1A. Sequence of R9-NC peptide. FIG. 1B. Results of formalin assay in control mouse (n=8) and mouse injected with R9-NC 60 min prior to formalin injection (n=8). Phase I response (1-10 min from formalin injection) and phase II response (11-60 min from formalin injection) are shown.
First, animals are injected with a 10 μM (20 μl) solution of the test compound (dissolved in PBS) in the dorsal surface of the hindpaw. One hour following the injection of the test compound, animals receive a formalin injection (20 μl of a 5% solution) into the dorsal surface of the hindpaw. The contralateral paw is not injected. Following injection, animals are immediately transferred to a plexiglass observation cage. Each animal is observed for a total of 60 minutes following formalin injection. The period spent biting, scratching, or licking the injected hindpaw is recorded (pain score). Data is presented as cumulative time spent biting, scratching, and licking in phase I (0-10 min) and phase II (11-60 min).
One hour following delivery of either saline (control) or R9-NC into the dorsum of the hindpaw, formalin (20 μl of a 5% solution) was injected into the same hindpaw. No effect of R9-NC on phase I of the formalin assay was observed.

Sequence | phase I of the formalin assay (formalin response [1]; phase I 0-10 min) | formalin induced phase II behaviors vs PBS (formalin response [1]; phase II 11-60 min) | average d2/d1 ratio (initial rates of FM1-43 destaining) [2] | effect on phase I of the formalin assay (formalin response [3]; phase I 0-10 min) | effect on phase II of the formalin assay (formalin response [3]; phase II 11-60 min)
RRRRRRRRRQDHWC [R9-QDHWC, RRRRRRRRRQDHWC] | not phase I | significant reduction | 0.32±0.18 | – | –
RRRRRRRRRHSYHHPDQDHWC [R9-NC] | – | – | – | No effect | significant reduction

From patent publication US7829688B2, “Peptides of CaV2.2 that inhibit pain” (The Board of Regents of the University of Texas System, priority 2004, dated 2010)
